# Screening data, single-dose tests

A: 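Growth of Mycobacterium tuberculosis over 3 days (7H9 medium with glucose and tyloxapol); the read-out is not stated. Tested at 50 µM. Direction is inferred from retests: higher values go with more growth inhibition. About 69,000 compounds were tested under these conditions; 1.1% (about 760) showed 50% or more at least once.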
B: 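Growth of Mycobacterium tuberculosis over 4 days (cholesterol / DPPC medium with tyloxapol); the read-out is not stated. Concentration: 50 µM. Direction is inferred from retests: higher values go with more growth inhibition. Size under these conditions: about 69,000 compounds, about 370 of them at 50% or above in at least one test.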

Each number is a percent effect as filed. The controls that fix the scale are not given in the record; negative values are as filed. Compounds were drawn at random from those tested, without regard to their results. Two or more numbers in one place are separate tests of the same structure; such repeats can differ widely.

CCCN(C(=O)c1ccccn1)c1nc2c(s1)CCc1c-2cnn1C gave A: 18.67%; B: 8.234%. For Cc1cccc(Cc2cc(C)nc(C3CCCNC3)c2)c1 (stereo not shown) the result was A: 57.01%; B: 32.32%. For Cc1nc(Cn2c3c(ccc2=O)CCN(CC2CCC2)CC3)cs1.O=C(O)C(F)(F)F.O=C(O)C(F)(F)F the result was A: -21.53% & -5.036%; B: 13.16%. For Cn1ccnc1CNCC1CCCN1c1cccnn1 (stereo not shown) the result was A: -8.968%; B: -28.45%.

Result for CCn1ccnc1CN1CCN(c2ncnc3ccsc23)CC1 was A: -9.927%; B: -0.9173%. For O=S(=O)(NCC1CCOc2ccccc2C1)N1CCOCC1 (stereo not shown) the result was A: 3.982%; B: 0.4743%. CCOC(C)c1nccn1CC(=O)Nc1cc(C)on1 (stereo not shown) gave A: -4.141% & 15.16%; B: 21.58%. CCNc1ncc(C(=O)N2CCC(c3ccccc3C(=O)O)C2)cn1 (stereo not shown) read A: 120.3% & -0.4713%; B: 7.842%.

Cc1cnn(CC2CN(Cc3nnc(-c4ccccc4)o3)CCO2)c1 (stereo not shown) gave A: 22.39%; B: 14.3%. Result for CCn1nccc1CN(C)C(=O)Cn1cc2c(n1)c(C)nn2CC was A: -3.621%; B: 5.95%. With COc1cccc(CN2CCc3nc(C(=O)NCC(C)C)sc3CC2)c1.O=C(O)C(F)(F)F the screen gave A: 27.11% & 38.25%; B: 0.5701%. COc1cccc2c1CCCCN2C(=O)c1oc(C)nc1C read A: -1.348% & -8.826%; B: 72.92%.

CCn1nc(C)c2c1cnn2CC(=O)NC(C)c1cccc(OC)c1 (stereo not shown) read A: -16.88%; B: -15.25%. For CCS(=O)(=O)NCCCn1ncc2c(C)cccc21 the result was A: 24.71%; B: -16.09%. With COc1cccc(-c2n[nH]cc2C(=O)NC(C)c2n[nH]c(C)n2)c1 (stereo not shown) the screen gave A: -12.05%; B: -37.98%. For CCCS(=O)(=O)c1ccc(N2CCN(c3ccccn3)CC2)nn1 the result was A: -1.624% & -11.03%; B: -7.58%.

Cc1cccc(CNC[C@H]2Cn3cc(-c4ccccc4)nc3CO2)n1 read A: 3.645% & 7.823%; B: -16.19%. Result for O=C(c1ccc2occc2c1)N1CCC(C(=O)O)(n2cccn2)CC1 was A: 8.785%; B: 4.494%. CCC(C)NC(=O)c1ccn(COc2ccccc2Cl)n1 (stereo not shown) read A: -1.059%; B: -3.488%. COc1ccccc1CN1CCC2(CCC(C(=O)N(C)C)O2)CC1 (stereo not shown) gave A: -0.348%; B: -12.2%.

CS(=O)(=O)c1ccc(-c2c[nH]c([C@@H]3COCCN3)n2)cc1 gave A: 5.401% & 20.47%; B: 10.3%. Result for CCc1nc(CC(=O)NC(C#N)CC)cs1 (stereo not shown) was A: 7.956% & -7.425%; B: -7.318%. O=C(O)C(F)(F)F.[H][C@@]12COC[C@]1([H])[C@@H](OCC1CCOCC1)CN2Cc1cccc(C#N)c1 gave A: 0.3556% & 8.453%; B: 7.212%. Result for Cc1noc(C)c1CNC(=O)N1CCN(CC2CC2)CC1 was A: -10.24%; B: 7.071% & -12.13%.

Result for Cc1nn(CC(C)C)c(C)c1CC(=O)N1CCCC(CNS(C)(=O)=O)C1 (stereo not shown) was A: -0.9393%; B: -3.29%. Result for Cn1c(=O)[nH]c(=O)n2c(CC(=O)NCc3ccccc3)cnc12 was A: 7.907%; B: -4.793%. With Cc1ccoc1C(=O)N1Cc2c(Cn3ccnc3)nn(C)c2C1.O=C(O)C(F)(F)F the screen gave A: 12.28%; B: -41.54% & -6.925%. For Clc1ccc(OCCNCCn2cccn2)cc1 the result was A: 7.166%; B: -7.646%.

With Cc1nc(N2CCN(C(=O)c3ccncc3)CC2)c2c(n1)c(C)nn2C the screen gave A: -20.45%; B: -25.85%. With O=C(c1cc[nH]n1)N1CCN(C(c2ccccc2)C(F)(F)F)CC1 (stereo not shown) the screen gave A: -11.11% & -12.95%; B: -4.044%. Result for O=C(O)C(F)(F)F.[H][C@@]12CCCO[C@]1([H])[C@H](Oc1ccccn1)CN2S(=O)(=O)N(C)C was A: -1.53%; B: 12.57%. CN(Cc1cnn(C)c1)C(=O)CCS(=O)(=O)c1ccc2c(c1)OCCO2 read A: -1.686%; B: -2.04%.

Result for CC(=O)N1CCCn2nc(CNS(=O)(=O)N3CCCCCC3)cc2C1 was A: -19.75%; B: -6.749%. Result for CN(Cc1cccnc1)C[C@H]1CC[C@@H](Cc2ccc3c(cnn3C)c2)O1 was A: 4.499% & 0.3726%; B: 1.977%. For NC(=O)C1CCN(C(=O)c2ccc(OCc3cscn3)cc2)CC1 the result was A: -29.8%; B: 32.08%. COc1cccc(-n2c(C)cc(C(=O)NCCCC(N)=O)c2C)c1 gave A: 10.02%; B: -3.434%.

With O=C(O)C(F)(F)F.O=C1COC2(CCN(CC3CCC3)CC2)CN1c1cncnc1 the screen gave A: 10.53%; B: -4.743%. For COc1cc(CSc2nnc(N)n2C2CC2)ccc1SC the result was A: -13.25%; B: -13.24%. COc1cc(CNc2cnn(CC(F)F)c2)ccc1O gave A: -35.13%; B: -36.64%. CNc1cccc(CC2COCCN(C(=O)c3cccnc3)C2)n1 (stereo not shown) gave A: -28.51%; B: 2.362% & 3.055%.

For Cn1cc(C2CCCN2Cc2csc(-c3ccccc3)n2)cn1 (stereo not shown) the result was A: 8.465%; B: 12.22%.

Repeated from the top, 3 entries:

SMILES	A	B
CCCN(C(=O)c1ccccn1)c1nc2c(s1)CCc1c-2cnn1C	18.67	8.234
Cc1cccc(Cc2cc(C)nc(C3CCCNC3)c2)c1 (stereo not shown)	57.01	32.32
Cc1nc(Cn2c3c(ccc2=O)CCN(CC2CCC2)CC3)cs1.O=C(O)C(F)(F)F.O=C(O)C(F)(F)F	-21.53 & -5.036	13.16

Source: ChEMBL document CHEMBL3988442, “University of Dundee, Small-Polar-MMV Screening Library” (2021).